From patent US20180030091A1, “COLLAGEN-BINDING SYNTHETIC PEPTIDOGLYCANS FOR USE IN VASCULAR INTERVENTION” (Purdue Research Foundation, priority 2010, published 2018)

Tested on: collagen
Experiment: Cryo-SEM measurement of fibril diameters
Conditions: cryo-SEM images at 20,000×
Protocol: Using a modification of EXAMPLE 18 fibril diameters were measured by 8cryo-SEM. Fibril diameters from cryo-SEM images taken at 20,000× were measured using ImageJ software (NIH). At least 45 fibrils were measured for each treatment. Results are presented as Avg.±S.E. Statistical analysis was performed using DesignExpert software (StatEase) with α=0.05.

RRANAALKAGELYKSILYGC
fibril diameter: decrease in fibril diameter

SYIRIADTNITGC [Dc13]
fibril diameter: does not affect fibril diameter
